Reference: paper PMC12807481
No constants are given. Whether binding was seen depends on the method and setting. Binding seen in cells or lysates may run through a third protein. Here binding means that the protein was enriched with, or labelled near, the bait; the list need not be complete. Tags and fused reporters may be left off the sequences shown.

By UniProt entry, the sequences of proteins in these tests, tags left out.
UniProt P63208: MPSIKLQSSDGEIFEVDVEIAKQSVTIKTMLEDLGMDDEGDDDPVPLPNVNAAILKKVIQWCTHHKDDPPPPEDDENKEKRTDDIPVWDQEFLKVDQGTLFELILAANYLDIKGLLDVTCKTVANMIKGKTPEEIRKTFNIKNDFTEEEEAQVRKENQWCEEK
UniProt Q7Z6K1: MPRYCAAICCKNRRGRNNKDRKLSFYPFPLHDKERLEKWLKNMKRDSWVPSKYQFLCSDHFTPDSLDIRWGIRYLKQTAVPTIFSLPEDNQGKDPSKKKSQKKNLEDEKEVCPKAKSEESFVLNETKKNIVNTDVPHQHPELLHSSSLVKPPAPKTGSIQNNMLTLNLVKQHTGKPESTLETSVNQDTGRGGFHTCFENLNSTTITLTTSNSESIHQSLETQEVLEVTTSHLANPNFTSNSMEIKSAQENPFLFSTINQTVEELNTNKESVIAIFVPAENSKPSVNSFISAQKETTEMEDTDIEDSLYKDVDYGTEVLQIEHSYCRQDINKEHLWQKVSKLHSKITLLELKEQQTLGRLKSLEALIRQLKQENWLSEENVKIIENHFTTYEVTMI

Molecular target: T1, FLAG-tagged FBXO11 (UniProt Q86XK2)
T1 sequence: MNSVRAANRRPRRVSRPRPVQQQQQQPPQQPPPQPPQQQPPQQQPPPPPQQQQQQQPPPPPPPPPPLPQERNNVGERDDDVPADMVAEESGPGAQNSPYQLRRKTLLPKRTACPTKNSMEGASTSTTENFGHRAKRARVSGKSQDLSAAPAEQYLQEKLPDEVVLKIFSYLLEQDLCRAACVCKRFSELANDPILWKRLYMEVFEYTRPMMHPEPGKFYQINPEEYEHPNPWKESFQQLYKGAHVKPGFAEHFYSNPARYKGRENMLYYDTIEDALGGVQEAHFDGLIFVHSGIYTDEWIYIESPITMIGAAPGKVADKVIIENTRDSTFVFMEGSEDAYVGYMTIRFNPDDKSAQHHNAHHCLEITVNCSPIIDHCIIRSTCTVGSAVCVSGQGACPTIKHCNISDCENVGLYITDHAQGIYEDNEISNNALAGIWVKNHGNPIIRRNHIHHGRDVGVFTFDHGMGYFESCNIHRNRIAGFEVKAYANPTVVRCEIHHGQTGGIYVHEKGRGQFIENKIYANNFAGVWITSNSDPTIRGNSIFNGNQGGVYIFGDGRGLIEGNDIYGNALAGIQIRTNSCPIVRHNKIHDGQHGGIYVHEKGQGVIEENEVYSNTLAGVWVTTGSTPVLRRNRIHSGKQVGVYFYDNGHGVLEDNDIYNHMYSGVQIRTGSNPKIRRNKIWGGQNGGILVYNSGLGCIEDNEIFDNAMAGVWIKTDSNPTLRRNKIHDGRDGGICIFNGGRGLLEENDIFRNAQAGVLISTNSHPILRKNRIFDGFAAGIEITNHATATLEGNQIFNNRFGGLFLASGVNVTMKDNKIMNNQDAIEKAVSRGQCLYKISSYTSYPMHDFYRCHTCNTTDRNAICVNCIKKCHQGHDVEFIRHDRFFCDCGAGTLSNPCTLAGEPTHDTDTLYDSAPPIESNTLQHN
Assay: affinity purification with mass spectrometry; FLAG-FBXO11 immunoprecipitated from K562 cells, coimmunoprecipitating proteins identified by tandem mass spectrometry; two independent experiments, without and with endonuclease treatment

Row | Substance | binding
1 | SKP1 (endogenous) (from UniProt P63208 1-163) | binds
2 | THAP5, transcriptional repressor (endogenous) (from UniProt Q7Z6K1 1-395) | binds
